No constants are given. Whether binding was seen depends on the method and setting. In cells and extracts the contact can be indirect. Here binding means that the protein was enriched with, or labelled near, the bait; the list need not be complete. Values belong to the molecule of their own block, whether it stands above or below them.
Target: T1, activity-dependent neuroprotector homeobox protein (ADNP) (mouse (endogenous in Th2 cells)) (UniProt Q9Z103)
T1 sequence: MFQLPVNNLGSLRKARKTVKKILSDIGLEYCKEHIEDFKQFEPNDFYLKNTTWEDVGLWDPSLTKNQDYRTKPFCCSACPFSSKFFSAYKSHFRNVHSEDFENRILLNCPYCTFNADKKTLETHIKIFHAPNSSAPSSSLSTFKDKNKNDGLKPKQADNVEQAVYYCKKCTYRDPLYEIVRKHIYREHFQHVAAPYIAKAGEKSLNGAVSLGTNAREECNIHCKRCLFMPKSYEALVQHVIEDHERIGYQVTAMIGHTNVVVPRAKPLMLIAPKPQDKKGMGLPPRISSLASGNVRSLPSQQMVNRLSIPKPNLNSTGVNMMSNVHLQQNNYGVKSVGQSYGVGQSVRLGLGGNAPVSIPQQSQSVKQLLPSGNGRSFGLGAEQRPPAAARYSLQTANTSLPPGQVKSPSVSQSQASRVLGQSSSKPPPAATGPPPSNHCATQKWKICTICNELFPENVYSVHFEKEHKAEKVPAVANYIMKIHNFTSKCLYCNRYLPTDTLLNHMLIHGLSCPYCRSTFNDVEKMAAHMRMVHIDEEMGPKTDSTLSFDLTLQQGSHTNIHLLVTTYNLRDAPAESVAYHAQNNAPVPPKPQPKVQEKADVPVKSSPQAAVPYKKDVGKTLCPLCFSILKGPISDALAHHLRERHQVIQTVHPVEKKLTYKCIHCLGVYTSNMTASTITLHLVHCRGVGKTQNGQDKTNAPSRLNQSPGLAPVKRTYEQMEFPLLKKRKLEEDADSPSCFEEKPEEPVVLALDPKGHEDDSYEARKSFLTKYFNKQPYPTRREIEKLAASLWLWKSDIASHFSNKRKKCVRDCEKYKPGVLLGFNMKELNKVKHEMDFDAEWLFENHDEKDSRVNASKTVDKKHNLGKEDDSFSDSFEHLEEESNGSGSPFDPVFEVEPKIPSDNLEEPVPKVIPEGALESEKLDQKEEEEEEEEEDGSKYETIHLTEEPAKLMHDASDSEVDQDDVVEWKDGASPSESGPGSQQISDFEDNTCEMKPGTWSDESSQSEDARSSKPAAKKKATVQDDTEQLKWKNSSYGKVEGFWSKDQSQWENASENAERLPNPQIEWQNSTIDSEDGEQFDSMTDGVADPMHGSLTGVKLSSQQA
Test: affinity purification with mass spectrometry; anti-ADNP immunoprecipitation from Th2 cell lysate (antibody overnight at 4 °C, protein A/G Dynabeads), on-bead trypsin digestion, LC-MS/MS; compared with isotype control

Protein sequences, listed by entry. Tags and fused reporters are not part of them.
UniProt Q3TKT4: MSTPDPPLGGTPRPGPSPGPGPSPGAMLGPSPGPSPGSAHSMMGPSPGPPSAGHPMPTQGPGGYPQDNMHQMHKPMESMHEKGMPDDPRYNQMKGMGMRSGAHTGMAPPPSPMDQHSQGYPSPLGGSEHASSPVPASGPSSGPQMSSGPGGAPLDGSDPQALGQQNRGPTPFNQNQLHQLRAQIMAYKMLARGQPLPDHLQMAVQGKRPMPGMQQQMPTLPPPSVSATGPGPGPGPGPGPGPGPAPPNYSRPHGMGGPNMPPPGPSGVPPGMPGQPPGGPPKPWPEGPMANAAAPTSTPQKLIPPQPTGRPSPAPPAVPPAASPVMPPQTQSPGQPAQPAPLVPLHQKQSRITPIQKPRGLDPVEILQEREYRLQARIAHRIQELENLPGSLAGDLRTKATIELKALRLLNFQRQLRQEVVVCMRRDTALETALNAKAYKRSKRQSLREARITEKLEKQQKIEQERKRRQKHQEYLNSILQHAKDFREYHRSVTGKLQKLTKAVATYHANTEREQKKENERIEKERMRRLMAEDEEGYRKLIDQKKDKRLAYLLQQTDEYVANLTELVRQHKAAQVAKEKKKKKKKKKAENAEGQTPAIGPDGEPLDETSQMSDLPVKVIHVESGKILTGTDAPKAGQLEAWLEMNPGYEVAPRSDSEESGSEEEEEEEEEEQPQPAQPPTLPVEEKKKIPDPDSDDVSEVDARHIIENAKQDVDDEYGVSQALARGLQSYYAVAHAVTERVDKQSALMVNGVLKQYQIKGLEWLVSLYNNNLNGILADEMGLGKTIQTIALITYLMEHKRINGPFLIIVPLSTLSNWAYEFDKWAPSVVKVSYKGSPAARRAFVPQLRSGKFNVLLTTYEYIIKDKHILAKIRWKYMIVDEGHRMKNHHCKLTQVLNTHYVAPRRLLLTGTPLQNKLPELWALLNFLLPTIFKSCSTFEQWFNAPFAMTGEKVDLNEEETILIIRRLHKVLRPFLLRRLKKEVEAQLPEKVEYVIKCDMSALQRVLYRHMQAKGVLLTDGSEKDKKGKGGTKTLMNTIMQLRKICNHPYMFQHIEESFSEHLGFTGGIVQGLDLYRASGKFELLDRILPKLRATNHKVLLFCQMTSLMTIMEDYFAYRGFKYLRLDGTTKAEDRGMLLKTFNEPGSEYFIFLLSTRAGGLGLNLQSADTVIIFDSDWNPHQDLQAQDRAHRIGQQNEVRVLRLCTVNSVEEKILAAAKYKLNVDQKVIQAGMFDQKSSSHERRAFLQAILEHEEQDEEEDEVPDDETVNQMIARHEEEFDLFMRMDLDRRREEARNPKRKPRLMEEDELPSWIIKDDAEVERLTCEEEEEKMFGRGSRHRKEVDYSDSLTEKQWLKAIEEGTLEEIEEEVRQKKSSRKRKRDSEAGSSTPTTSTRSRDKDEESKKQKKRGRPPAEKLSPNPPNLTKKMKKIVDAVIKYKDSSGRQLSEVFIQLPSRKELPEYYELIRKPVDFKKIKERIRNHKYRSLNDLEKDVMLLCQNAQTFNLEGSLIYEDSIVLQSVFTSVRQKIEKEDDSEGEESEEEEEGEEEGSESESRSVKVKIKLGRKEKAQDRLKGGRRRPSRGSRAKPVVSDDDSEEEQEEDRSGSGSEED
UniProt P23198: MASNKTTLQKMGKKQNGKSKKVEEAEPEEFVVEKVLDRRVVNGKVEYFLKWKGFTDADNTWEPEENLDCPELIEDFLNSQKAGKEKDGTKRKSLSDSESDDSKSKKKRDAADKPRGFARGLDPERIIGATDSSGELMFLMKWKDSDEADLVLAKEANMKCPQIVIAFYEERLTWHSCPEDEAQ

binding: binds
Molecule: Brahma-related gene-1 (BRG1, encoded by Smarca4) (from UniProt Q3TKT4 1-1613)

binding: binds
Molecule: HP1γ (CBX3) (from UniProt P23198 1-183)

binding: binds
B1: CCCTC-binding factor (CTCF) (protein, UniProt Q61164 1-736)
chain: MEGEAVEAIVEESETFIKGKERKTYQRRREGGQEEDACHLPQNQTDGGEVVQDVNSSVQMVMMEQLDPTLLQMKTEVMEGTVAPEAEAAVDDTQIITLQVVNMEEQPINIGELQLVQVPVPVTVPVATTSVEELQGAYENEVSKEGLAESEPMICHTLPLPEGFQVVKVGANGEVETLEQGELPPQEDSSWQKDPDYQPPAKKTKKTKKSKLRYTEEGKDVDVSVYDFEEEQQEGLLSEVNAEKVVGNMKPPKPTKIKKKGVKKTFQCELCSYTCPRRSNLDRHMKSHTDERPHKCHLCGRAFRTVTLLRNHLNTHTGTRPHKCPDCDMAFVTSGELVRHRRYKHTHEKPFKCSMCDYASVEVSKLKRHIRSHTGERPFQCSLCSYASRDTYKLKRHMRTHSGEKPYECYICHARFTQSGTMKMHILQKHTENVAKFHCPHCDTVIARKSDLGVHLRKQHSYIEQGKKCRYCDAVFHERYALIQHQKSHKNEKRFKCDQCDYACRQERHMIMHKRTHTGEKPYACSHCDKTFRQKQLLDMHFKRYHDPNFVPAAFVCSKCGKTFTRRNTMARHADNCAGPDGVEGENGGETKKSKRGRKRKMRSKKEDSSDSEENAEPDLDDNEEEEEPAVEIEPEPEPQPQPPPPPQPVAPAPPPAKKRRGRPPGRTNQPKQNQPTAIIQVEDQNTGAIENIIVEVKKEPDAEPAEGEEEEAQAATTDAPNGDLTPEMILSMMDR

Reference: article PMC10501989
